Results published in PubChem BioAssay AID504444 (National Center for Advancing Translational Sciences (NCATS), 2011).
The whole screen tested about 360,000 compounds, of which about 7,500 (2.1%) were called active. Inconclusive results, whose numbers are uncertain, are shown with a selection of clear calls. The call rests on the fitted dose curve; in most records, active means well fitted inhibition curve with a large enough effect; inconclusive means small, poorly fitted or top-dose-only effect, or effect the other way; inactive means flat fitted curve, though single readings scatter. Where the call is inconclusive, the potency comes from a doubtful curve fit.

Experiment: Nrf2 qHTS screen for inhibitors; further: nearly all actives have a fitted effect of over 60% in size
Conditions: A549 ARE-Fluc reporter, luciferase luminescence, 18-24 h; series mostly up to 46 µM
How it was run: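 Reporter: ARE-Fluc in A549. Exposure: 18-24 h, 37 °C, 5% CO2, 5% FBS OPTI-MEM. Readouts: fluorescent cytotoxicity (CellTiter-Fluor), then luminescent Nrf2 signal after BugLite.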
Potency means the concentration at half of the fitted maximal effect.

| Compound | Potency |
| --- | --- |
| CN1CCN(NC(=O)c2cn(-c3ccccc3)nc2-c2ccc(OC(F)F)cc2)CC1 | inconclusive: 0.103 µM [activator, full curve, poor fit] |
| O=C(Oc1ccc(N(Cc2cccs2)C2=NS(=O)(=O)c3ccccc32)cc1)c1ccc(Cl)cc1 | inconclusive: 8.2 µM [falling, partial curve, poor fit] |
| O=[N+]([O-])c1cccc(S(=O)(=O)N2CCCC2)c1 | inconclusive: 32.6 µM [activator, partial curve, poor fit] |
| Cc1ccc(NCC(=O)N/N=C\c2ccc[nH]2)cc1 | inconclusive: 32.6 µM [falling, single point] |
| COc1cccc(CN(C)C(=O)c2cc(S(=O)(=O)NC3CCCCC3)ccc2C)c1 | inconclusive: 29.1 µM [falling, single point] |
| Cc1ccc(S(=O)(=O)N2CCN(C(=O)CN3CCCSc4ccccc43)CC2)cc1 | inactive |
| C=CC[C@@H](Cc1ccc(F)cc1)C(=O)OC[C@H]1CCCN1C(=O)[C@H](CC=C)CC(=O)N(CCO)Cc1ccccc1 | inconclusive: 32.6 µM [falling, single point] |
| Cn1c(=O)c2c(nc(OC/C=C/c3ccccc3)n2C)n(C)c1=O | inactive |
| CCCC(=O)Nc1ccc(C(=O)COC(=O)C2CC2)cc1 | inactive |
| O=C(NCCc1ccccc1)c1ccc(CSc2nc3cccnc3n2Cc2ccccc2F)cc1 | inconclusive: 32.6 µM [falling, single point] |
| CCOC(=O)Nc1nnc(Cc2ccc(Cl)c(Cl)c2)s1 | inconclusive: 16.4 µM [falling, partial curve, poor fit] |
| O=C1CC2(CCN(C(=O)c3ccc(Br)cc3)CC2)Oc2ccccc21 | inactive |
| COc1ccc(S(=O)(=O)N2CCC(C(=O)N3CCCCC3)CC2)cc1 | inconclusive: 23.1 µM [falling, single point] |
| CC(C)N(C(=O)c1sc2cc([N+](=O)[O-])ccc2c1Cl)C(C)C | inactive |
| CSc1ccc(C(=O)C2CCCN(Cc3ccc(N4CCNC4=O)cc3)C2)cc1 (stereo not given) | inconclusive: 29.1 µM [activator, single point] |
| Cc1ccc(C)c(NC(=O)Cn2c(=O)n(Cc3nc(C)no3)c(=O)c3cc4c(cc32)OCO4)c1 | inconclusive: 4.11 µM [activator, full curve, poor fit] |
| O=C(Cn1nnc(-c2ccc(F)cc2)n1)Nc1ccc2c(c1)OCCO2 | inconclusive: 20.6 µM [falling, partial curve, poor fit] |
| O=C(CCCC(=O)N(CC(=O)NC1CCCCC1)c1cccc(F)c1)Nc1ccccn1 | inactive |
| CN1C(=O)N(C)c2ccc(Br)c3cccc1c23 | inconclusive: 11.6 µM [falling, partial curve] |
| c1ccc(CSc2nnc(Cc3ccccc3)o2)cc1 | inconclusive: 20.6 µM [activator, partial curve] |

Reformatted: entries from further up
Compound | Potency
O=[N+]([O-])c1cccc(S(=O)(=O)N2CCCC2)c1 | inconclusive: 32.6 µM [activator, partial curve, poor fit]
Cc1ccc(NCC(=O)N/N=C\c2ccc[nH]2)cc1 | inconclusive: 32.6 µM [falling, single point]
COc1cccc(CN(C)C(=O)c2cc(S(=O)(=O)NC3CCCCC3)ccc2C)c1 | inconclusive: 29.1 µM [falling, single point]
Cc1ccc(S(=O)(=O)N2CCN(C(=O)CN3CCCSc4ccccc43)CC2)cc1 | inactive
C=CC[C@@H](Cc1ccc(F)cc1)C(=O)OC[C@H]1CCCN1C(=O)[C@H](CC=C)CC(=O)N(CCO)Cc1ccccc1 | inconclusive: 32.6 µM [falling, single point]
Cn1c(=O)c2c(nc(OC/C=C/c3ccccc3)n2C)n(C)c1=O | inactive
CCCC(=O)Nc1ccc(C(=O)COC(=O)C2CC2)cc1 | inactive
O=C(NCCc1ccccc1)c1ccc(CSc2nc3cccnc3n2Cc2ccccc2F)cc1 | inconclusive: 32.6 µM [falling, single point]
CCOC(=O)Nc1nnc(Cc2ccc(Cl)c(Cl)c2)s1 | inconclusive: 16.4 µM [falling, partial curve, poor fit]

The results go on.

| Compound | Potency |
| --- | --- |
| CC(C)(C)NC(=O)/C(=C\c1ccco1)NC(=O)c1cccs1 | inactive |
| C=C(NC(=O)C(=C)NC(=O)c1csc(C2=NC3c4csc(n4)C4NC(=O)c5csc(n5)C(C(C)(O)C(C)O)NC(=O)C5CSC(=N5)/C(=C/C)NC(=O)C(C(C)O)NC(=O)c5csc(n5)C3(CC2)NC(=O)C(C)NC(=O)C(=C)NC(=O)C(=C)NC(=O)C(C(C)C)NC2C=Cc3c(C(C)O)cc(nc3C2O)C(=O)OC4C)n1)C(N)=O (stereo not given) | inconclusive: 7.31 µM [falling, partial curve, poor fit] |
| O=C(c1ccccc1)C1OC1C(=O)c1ccccc1 (stereo not given) | inconclusive: 3.66 µM [activator, single point] |
| CCOC(=O)C1(CCOC)CCN(C(=O)c2ccccc2-c2cccc(C)c2)CC1 | inconclusive: 32.6 µM [activator, partial curve, poor fit] |
| COc1ccc(N(CC(=O)NC2CC3CCC2C3)S(=O)(=O)c2ccc(C)cc2)cc1OC (stereo not given) | inconclusive: 32.6 µM [falling, single point] |
| O=C(O)CSc1nc2ccccc2n1C1CCCCC1 | inconclusive: 6.51 µM [falling, partial curve, poor fit] |
| CCOC(=O)C1CCCN(C2=NC(=O)/C(=C/c3ccc(O)c(OCC)c3)S2)C1 (stereo not given) | inconclusive: 29.1 µM [activator, single point] |
| Cc1cccc(N2C(=O)C(CC(=O)Nc3ccc(F)cc3)N(C3CCCC3)C2=O)c1 (stereo not given) | inactive |
| CC(C)CCNC(=O)c1cc2c(=O)[nH]c3ccccc3c2s1 | inconclusive: 1.64 µM [falling, full curve, poor fit] |
| Cc1cc2oc(=O)c(CC(=O)NCCCN(C)C)c(C)c2c2occ(C(C)(C)C)c12 | inactive |
| COc1cc(CNCCNC(=O)c2nonc2N)ccc1OCc1ccc(Cl)cc1 | inactive |
| CN(C)c1cc[n+](Cc2c(Cl)cccc2Cl)cc1 | inconclusive: 2.59 µM [falling, partial curve, poor fit] |
| CCOC(=O)C(=O)N1CCN(c2nc(-c3ccc(Cl)cc3)cs2)CC1 | inconclusive: 18.4 µM [falling, partial curve, poor fit] |
| Cc1ccc(-c2cc(C(=O)N3CCN(S(=O)(=O)c4ccc(Br)s4)CC3)[nH]n2)cc1C | inactive |
| Cc1ccc(C2=NOC(=O)/C2=C\C=C\c2ccccc2)cc1 | inconclusive: 29.1 µM [falling, single point] |
| Cc1cccc(C)c1NC(=O)CSc1cc(C(=O)c2nccn2C)c2ccccc2n1 | inactive |
| COc1ccccc1CNc1ncnc2cc(OC)c(OC)cc12 | inconclusive: 29.1 µM [falling, single point] |
| COc1ccc(C2CC(=O)c3cnn(-c4nc(C)cc(C)n4)c3C2)cc1 (stereo not given) | inconclusive: 29.1 µM [falling, partial curve, poor fit] |
| COc1ccc2[nH]c(C(=O)N3CCCN(Cc4ccc(F)cc4)CC3)cc2c1 | inconclusive: 29.1 µM [falling, single point] |
| CC(C)NC(=O)CSCc1ccccc1Cl | inconclusive: 0.651 µM [falling, partial curve, poor fit] |
